Assay results published in publication PMC9653928.
These are yes or no findings as the source states them, for the method shown. Binding can be weak; no strength is given.

What was measured:
Assay in all cases: two-hybrid; PprCIPKs in pGBKT7 as bait (strain Y2Hgold), PprCBLs in pGADT7 as prey (strain Y187), mated; diploids grown on DDO, QDO/A and QDO/A/X media at 30 °C for 3 d in the dark; empty vectors as controls
[1] = biological target: PprCIPK5 (peach (Prunus persica))
[2] = biological target: PprCIPK17 (peach (Prunus persica)) (UniProt M5W1Z0)
[3] = biological target: PprCIPK13 (peach (Prunus persica)) (UniProt M5W5N0)
[4] = biological target: PprCIPK12 (peach (Prunus persica)) (UniProt M5WHU3)
[5] = biological target: PprCIPK14 (peach (Prunus persica)) (UniProt M5WPB6)

Measured: binding

PprCBL1 (from UniProt A0A251RB23)
binds: [1] | [2]

PprCBL3 (from UniProt M5XDL0)
binds: all assays above
